Measurements reported in PubChem BioAssay AID1224830 (NIAID, 2016).
The deposit covers about 18,000 reagents; this is an unselected part. Over the whole deposit, about 2,900 (16%) were called active. 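Calls are made per well; low scores hint the gene aids the LPS response, high scores that it dampens it.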 Repeated entries: four replicate wells of each siRNA pool.

- Purpose: 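Host factors that control LPS-induced TNF expression in human macrophages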 (primary screen)
- System: human THP-1 monocytic leukaemia cells, TNF dual-luciferase reporter clone, PMA-differentiated to macrophage-like cells
- Reagent: siRNA pool against human genes, 50 nM
- Timing: LPS for 4 h, given about 3 days after siRNA transfection
- Challenge: bacterial LPS (TLR4 ligand), 10 ng/ml
- Measurement: 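TNF firefly reporter luminescence divided by renilla, normalised to the plate median, then turned into a robust z-score for each replicate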
- Scale: TNF reporter robust z-score: higher = stronger TNF reporter response to LPS
- Hit rule: 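Each well counts as active if its z-score is over 2.8 or under -1.5; controls are left without a call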

| Gene | TNF reporter robust z-score | outcome |
| --- | --- | --- |
| IDNK | 1.35 | inactive |
| IDNK | -0.08 | inactive |
| IDNK | 4.19 | active |
| IDNK | 0.88 | inactive |
| AMER2 | – | inactive |
| RAE1 | -0.64 | inactive |
| RAE1 | -0.37 | inactive |
| RAE1 | -1.34 | inactive |
| RAE1 | -1.07 | inactive |
| APOBEC3H | 1.69 | inactive |
| APOBEC3H | 0.86 | inactive |
| APOBEC3H | 0.58 | inactive |
| APOBEC3H | 0.76 | inactive |
| CSTF2 | 0.15 | inactive |
| CSTF2 | -0.42 | inactive |
| CSTF2 | 0.13 | inactive |
| CSTF2 | 0.61 | inactive |
| RWDD4 | -1.28 | inactive |
| RWDD4 | -0.75 | inactive |
| RWDD4 | -1.14 | inactive |
| RWDD4 | -1.12 | inactive |
| GON7 | 0.04 | inactive |
| GON7 | 1.95 | inactive |
| GON7 | 0.92 | inactive |
| GON7 | 0.91 | inactive |
| PCDHB12 | -0.99 | inactive |
| PCDHB12 | -0.44 | inactive |
| PCDHB12 | -0.72 | inactive |
| PCDHB12 | -0.73 | inactive |
| TMPRSS9 | -1.03 | inactive |
| TMPRSS9 | -0.95 | inactive |
| TMPRSS9 | -0.12 | inactive |
| TMPRSS9 | -0.52 | inactive |
| MAP3K9 | -0.39 | inactive |
| MAP3K9 | -1.3 | inactive |
| MAP3K9 | -0.96 | inactive |
| MAP3K9 | -0.17 | inactive |
| CLEC2B | -1.46 | inactive |
| CLEC2B | 0.06 | inactive |
| CLEC2B | -0.92 | inactive |
| CLEC2B | -0.93 | inactive |
| MOAP1 | – | inactive |
| MOAP1 | -0.77 | inactive |
| MOAP1 | -0.54 | inactive |
| MOAP1 | -1.07 | inactive |
| MOAP1 | -0.72 | inactive |
| GOLGA4 | 2.99 | active |
| GOLGA4 | 2.88 | active |
| GOLGA4 | 2.15 | inactive |
| GOLGA4 | 2.57 | inactive |
| SOX6 | -0.41 | inactive |
| SOX6 | 0.18 | inactive |
| SOX6 | -0.79 | inactive |
| SOX6 | 1.53 | inactive |
| ZNF197 | -0.94 | inactive |
| ZNF197 | -0.68 | inactive |
| ZNF197 | 0.22 | inactive |
| ZNF197 | 1.14 | inactive |
| ZNF362 | 1.61 | inactive |
| ZNF362 | 1.63 | inactive |
| ZNF362 | 1.71 | inactive |
| ZNF362 | 1.68 | inactive |
| PNLIP | -1.26 | inactive |
| PNLIP | -0.07 | inactive |
| PNLIP | -0.76 | inactive |
| PNLIP | -0.61 | inactive |
| HOXD9 | -0.67 | inactive |
| HOXD9 | -0.32 | inactive |
| HOXD9 | -1.1 | inactive |
| HOXD9 | 0.2 | inactive |
| MBD5 | -1.13 | inactive |
| MBD5 | -0.6 | inactive |
| MBD5 | -0.72 | inactive |
| MBD5 | 0.97 | inactive |
| HHIPL2 | 4.26 | active |
| HHIPL2 | 0 | inactive |
| HHIPL2 | 0.04 | inactive |
| HHIPL2 | 1.02 | inactive |

Laid out differently: entries from further up.
Gene,TNF reporter robust z-score,outcome
CLEC2B,-0.92,inactive
CLEC2B,-0.93,inactive
MOAP1,,inactive
MOAP1,-0.77,inactive
MOAP1,-0.54,inactive
MOAP1,-1.07,inactive
MOAP1,-0.72,inactive
GOLGA4,2.99,active
GOLGA4,2.88,active
GOLGA4,2.15,inactive
GOLGA4,2.57,inactive
